Experimental data: paper doi:10.1101/2021.12.07.471635
These are yes or no findings as the source states them, for the method shown. Binding seen in cells or lysates may run through a third protein. Some entries that bind do so weakly or less than the wild type. One block for each binder: values may come before it.

Protein sequences, listed by entry. Tags and fused reporters are not part of them.
UniProt P51114: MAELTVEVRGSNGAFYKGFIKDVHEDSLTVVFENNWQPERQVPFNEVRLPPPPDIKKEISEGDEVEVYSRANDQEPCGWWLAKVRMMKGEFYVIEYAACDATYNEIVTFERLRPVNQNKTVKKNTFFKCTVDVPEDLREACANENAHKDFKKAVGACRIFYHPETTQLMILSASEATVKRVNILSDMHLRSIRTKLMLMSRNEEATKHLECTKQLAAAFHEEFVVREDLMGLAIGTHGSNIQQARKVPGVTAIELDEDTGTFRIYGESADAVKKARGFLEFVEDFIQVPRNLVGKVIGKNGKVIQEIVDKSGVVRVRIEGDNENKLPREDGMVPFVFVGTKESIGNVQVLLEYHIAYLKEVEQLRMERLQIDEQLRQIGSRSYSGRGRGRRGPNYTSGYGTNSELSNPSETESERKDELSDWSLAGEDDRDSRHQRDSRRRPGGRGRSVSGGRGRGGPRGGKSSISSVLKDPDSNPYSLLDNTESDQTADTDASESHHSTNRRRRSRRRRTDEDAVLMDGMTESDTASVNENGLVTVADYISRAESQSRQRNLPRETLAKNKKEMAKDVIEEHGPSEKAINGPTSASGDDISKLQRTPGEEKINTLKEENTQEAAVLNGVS

Target: Fragile-X-mental retardation related protein 1 (FXR1) (human (endogenous in THP1)) (UniProt P51114)
Experiment: co-IP

binding: binds
B1: DDX21 (protein, UniProt Q9NR30 1-783)
chain: MPGKLRSDAGLESDTAMKKGETLRKQTEEKEKKEKPKSDKTEEIAEEEETVFPKAKQVKKKAEPSEVDMNSPKSKKAKKKEEPSQNDISPKTKSLRKKKEPIEKKVVSSKTKKVTKNEEPSEEEIDAPKPKKMKKEKEMNGETREKSPKLKNGFPHPEPDCNPSEAASEESNSEIEQEIPVEQKEGAFSNFPISEETIKLLKGRGVTFLFPIQAKTFHHVYSGKDLIAQARTGTGKTFSFAIPLIEKLHGELQDRKRGRAPQVLVLAPTRELANQVSKDFSDITKKLSVACFYGGTPYGGQFERMRNGIDILVGTPGRIKDHIQNGKLDLTKLKHVVLDEVDQMLDMGFADQVEEILSVAYKKDSEDNPQTLLFSATCPHWVFNVAKKYMKSTYEQVDLIGKKTQKTAITVEHLAIKCHWTQRAAVIGDVIRVYSGHQGRTIIFCETKKEAQELSQNSAIKQDAQSLHGDIPQKQREITLKGFRNGSFGVLVATNVAARGLDIPEVDLVIQSSPPKDVESYIHRSGRTGRAGRTGVCICFYQHKEEYQLVQVEQKAGIKFKRIGVPSATEIIKASSKDAIRLLDSVPPTAISHFKQSAEKLIEEKGAVEALAAALAHISGATSVDQRSLINSNVGFVTMILQCSIEMPNISYAWKELKEQLGEEIDSKVKGMVFLKGKLGVCFDVPTASVTEIQEKWHDSRRWQLSVATEQPELEGPREGYGGFRGQREGSRGFRGQRDGNRRFRGQREGSRGPRGQRSGGGNKSNRSQNKGQKRSFSKAFGQ

binding: binds
B2: NOLC1 (protein, UniProt Q14978 1-699)
chain: MADAGIRRVVPSDLYPLVLGFLRDNQLSEVANKFAKATGATQQDANASSLLDIYSFWLKSAKVPERKLQANGPVAKKAKKKASSSDSEDSSEEEEEVQGPPAKKAAVPAKRVGLPPGKAAAKASESSSSEESSDDDDEEDQKKQPVQKGVKPQAKAAKAPPKKAKSSDSDSDSSSEDEPPKNQKPKITPVTVKAQTKAPPKPARAAPKIANGKAASSSSSSSSSSSSDDSEEEKAAATPKKTVPKKQVVAKAPVKAATTPTRKSSSSEDSSSDEEEEQKKPMKNKPGPYSSVPPPSAPPPKKSLGTQPPKKAVEKQQPVESSEDSSDESDSSSEEEKKPPTKAVVSKATTKPPPAKKAAESSSDSSDSDSSEDDEAPSKPAGTTKNSSNKPAVTTKSPAVKPAAAPKQPVGGGQKLLTRKADSSSSEEESSSSEEEKTKKMVATTKPKATAKAALSLPAKQAPQGSRDSSSDSDSSSSEEEEEKTSKSAVKKKPQKVAGGAAPSKPASAKKGKAESSNSSSSDDSSEEEEEKLKGKGSPRPQAPKANGTSALTAQNGKAAKNSEEEEEEKKKAAVVVSKSGSLKKRKQNEAAKEAETPQAKKIKLQTPNTFPKRKKGEKRASSPFRRVREEEIEVDSRVADNSFDAKRGAAGDWGERANQVLKFTKGKSFRHEKTKKKRGSYRGGSISVQVNSIKFDSE
